Experiments:
[1] = Phase-transfer extraction of the hyperpolarized product into water: 13C signal enhancement and amount transferred; type: physicochemical
[2] = Hyperpolarization test: 13C NMR signal enhancement after para-hydrogenation (PHIP); settings: for 13C signal enhancement after para-hydrogenation and field cycling: acetone-d6, 14 T, 298 K

## COCCOCCOC(=O)/C=C\C(=O)OCCOCCOC [B]
[1]; hydrogenation in CDCl3/acetone-d6 (6:1), extraction into D2O, 14 T
  13C signal enhancement after field cycling and extraction in water: 100 times
[2]
  13C signal enhancement after para-hydrogenation and field cycling: about 250 times
[2]; acetone-d6, para-H2 52% enriched, before field cycling
  13C signal enhancement recorded immediately after parahydrogenation: 1500 times

## C[Si](C)(C)OC(=O)/C=C\C(=O)O[Si](C)(C)C [D]
[2]
  13C signal enhancement after para-hydrogenation and field cycling: about 700 times

## O=C(O)CCC(=O)O [succinic acid]
[1]; maleic anhydride not 13C enriched, CDCl3/acetone-d6 6:1, 0.25 M NaOH in D2O, signal at 174.65 ppm
  13C signal enhancement after field cycling, hydrolysis and phase extraction: about 30 times
